Experimental data published in patent publication EP4825388A1, “USE OF CYCLO(HIS-PRO) (CHP) FOR ENHANCING EXERCISE PERFORMANCE, IMPROVING MUSCLE FUNCTION, OR PREVENTING, ALLEVIATING, OR TREATING MUSCLE DISEASES” (dated 2026).
Structures were worked out from names or drawings and are uncertain.

Assays:
[1] = tested on: GM and TA muscles
[2] = tested on: cardiac muscle
[3] = tested on: aged animal model; test: Grip strength test in aged mice; conditions: 35 mg/kg orally once/day; grip strength of forepaws and hind paws corrected for body weight
[4] = tested on: C57BL/10ScSn-Dmdmdx (mdx) mice; test: Hanging test in mdx (DMD) mouse model; conditions: treatment protocol, 35 mg/kg, test at week 15; vs water-treated mdx
[5] = tested on: aged animal model; test: Four limb-wire hanging test in aged mice; conditions: 35 mg/kg orally once/day; longest hanging time of two measurements
[6] = tested on: gastrocnemius (GM), tibialis anterior (TA) and cardiac muscle tissues; test: Measurement of muscle weight in aged mice; conditions: 35 mg/kg orally once/day; tissues isolated after euthanasia
[7] = tested on: C57BL/10ScSn-Dmdmdx (mdx) mice; test: Grip strength test in mdx (DMD) mouse model; conditions: vs water-treated mdx
[8] = tested on: citrate synthase; test: Citrate synthase activity in TA muscle of aged mice; conditions: 35 mg/kg orally once/day; corrected for total protein concentration
[9] = tested on: aged animal model; test: Survival rate of aged mice during the experimental period; conditions: 18-month-old mice, 35 mg/kg orally once/day for 4 months
[10] = tested on: GM tissues; test: Muscle fiber cross-sectional area, H&E staining of GM tissue; conditions: 35 mg/kg orally once/day
[11] = tested on: aged animal model; test: Evaluation of sensorimotor function (Rota-rod test) in aged mice; conditions: 35 mg/kg orally once/day; Rota-rod 4 to 40 rpm; statistical significance on day 3
[12] = tested on: extensor digitorum longus (EDL) and soleus muscles; test: Ex vivo muscle force production of muscles isolated from CHP-treated mdx mice; conditions: prevention protocol, CHP for 17 weeks
[13] = tested on: flexor digitorum brevis (FDB) muscles; test: SR Ca^2+ release/uptake (Fluo-4/AM) in FDB fibers isolated from CHP-treated mdx mice; conditions: prevention protocol; 2.5 mM caffeine stimulation
[14] = GM and TA muscles, corrected by β-actin
[15] = compared to the vehicle-treated control group

For O=C1N[C@@H](Cc2c[nH]cn2)C(=O)N2CCC[C@@H]12, the “expressions of genes related to mitochondrial biogenesis and function (Err-α, Cox-4, Drp-1, Tf1bm and Tf2bm)” value [1, 14] was “significantly increased”, the sirt-1 expression [1, 14] was “increase equally in GM and TA muscles” and the “expression of genes related to aging and muscle atrophy” value ([1]; compared to the control group, corrected by β-actin) was “maintained to be lower”. The “gene expression levels of Myostatin, Atrogin-1, Foxo-1 and Dystrophin in skeletal muscle” value [1, 15] was “significant decrease”, the “gene expression levels of PGC-1α, Nrf-2, Sirt-1, Sirt-3, Drp-1, Err-α, Cox-4, Tf1bm and Tf2bm in skeletal muscle” value [1, 15] was “significantly increased” and the “expression of the nrf-2 gene” value ([1]; corrected by β-actin) was “high”. The “expressions of atrogin-1 and murf-1 genes” value [2] was “significantly reduced”, the “maximum muscle strength, increase compared to the control group” value [3] was “about 23.6%” and the average hanging time [4] was “significantly increased”. For the same molecule, the “hanging time, increase compared to the control group” value [5] was “about 1.9 times”, the “weight of the TA muscle” value [6] was “significantly increased” and the grip strength ([7]; prevention protocol, 20 mg/kg oral gavage three times a week from 3 weeks of age, test at week 10) was “significant increase”. The grip strength ([7]; treatment protocol, 35 mg/kg oral gavage three times a week from 7 weeks of age, test at week 16) was “significant increase”, the “citrate synthase activity of TA muscle, increase compared to the control group” value [8] was “about 12%” and the survival rate [9] was 100%. The “average cross-sectional area of muscle fibers, increase compared to the control group” value [10] was “about 22%”, the “distribution of muscle fibers over a wide area” value [10] was “increased” and the sensorimotor function [11] was “improved sensorimotor function compared to the control group”. For the same molecule, the maximal contractile force ([12]; EDL and soleus muscles) was “partial recovery”, the “performance of EDL and soleus muscles” value ([12]; concentric contractions, force-frequency relationship) was “improved” and the “Ca^2+ uptake via store-operated calcium channels (SOCs) after SR depletion” value [13] was “normalized”. For the same molecule, the “response to caffeine-induced Ca^2+ release in the SR” value [13] was “restored”.
